# Source: the supplement of paper PMC8728848
# Some of the results follow.
# Key:
# Assay in all cases: glycan array binding signal (z-score within array); higher = stronger binding
# Details in all cases: glycan notation: IUPAC condensed, linker removed
# [1] = target: Gal(b1-4)GlcNAc(b1-3)Gal(b1-4)GlcNAc(b1-6)[Gal(b1-3)]GalNAc
# Procedure, shortened: (§1)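 From the Consortium for Functional Glycomics database, 3228 arrays were curated, keeping only those whose protein sequence was available. Binding is given as a within-array Z-score averaged across arrays sharing a protein sequence and across linkers. Negative Z-scores can be read as non-binding.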
# [2] = target: Gal(b1-4)GlcNAc(b1-3)Gal(b1-4)[Fuc(a1-3)]GlcNAc(b1-3)Gal(b1-4)[Fuc(a1-3)]GlcNAc
# Procedure, shortened: as §1
# [3] = target: Gal(b1-4)GlcNAc(b1-3)GalNAc
# Procedure, shortened: as §1
# [4] = target: Gal(b1-4)GlcNAc(b1-3)[Fuc(a1-3)GlcNAc(b1-6)]Gal(b1-4)Glc
# Procedure, shortened: as §1
# [5] = target: Gal(b1-4)GlcNAc(b1-3)[Gal(b1-4)GlcNAc(b1-6)]Gal(b1-4)GlcNAc
# Procedure, shortened: as §1
# [6] = target: Gal(b1-4)GlcNAc(b1-3)[GlcNAc(b1-6)]Gal(b1-4)GlcNAc
# Procedure, shortened: as §1
# [7] = target: Gal(b1-4)GlcNAc(b1-6)Gal(b1-4)GlcNAc
# Procedure, shortened: as §1
# [8] = target: Gal(b1-4)GlcNAc(b1-6)GalNAc
# Procedure, shortened: as §1
# [9] = target: Gal(b1-4)GlcNAc(b1-6)[Gal(b1-3)]GalNAc
# Procedure, shortened: as §1
# [10] = target: Gal(b1-4)GlcNAc(b1-6)[Gal(b1-4)GlcNAc(b1-3)]GalNAc
# Procedure, shortened: as §1
# [11] = target: Gal(b1-4)GlcNAc6P
# Procedure, shortened: as §1
# [12] = target: Gal(b1-6)Gal
# Procedure, shortened: as §1
# [13] = target: Gal3S(b1-3)GalNAc
# Procedure, shortened: as §1
# [14] = target: Gal3S(b1-3)GlcNAc
# Procedure, shortened: as §1
# [15] = target: Gal3S(b1-3)[Fuc(a1-4)]GlcNAc
# Procedure, shortened: as §1
# [16] = target: Gal3S(b1-4)Glc
# Procedure, shortened: as §1
# [17] = target: Gal3S(b1-4)Glc6S
# Procedure, shortened: as §1
# [18] = target: Gal3S(b1-4)GlcNAc
# Procedure, shortened: as §1
# [19] = target: Gal3S(b1-4)[Fuc(a1-3)]Glc6S
# Procedure, shortened: as §1
# [20] = target: Gal3S(b1-4)[Fuc(a1-3)]GlcNAc
# Procedure, shortened: as §1
# [21] = target: Gal3S(b1-4)[Fuc(a1-3)]GlcNAc6S
# Procedure, shortened: as §1
# [22] = target: Gal3S4S(b1-4)GlcNAc
# Procedure, shortened: as §1
# [23] = target: Gal3S6S(b1-4)GlcNAc
# Procedure, shortened: as §1
# [24] = target: Gal3S6S(b1-4)GlcNAc6S
# Procedure, shortened: as §1
# [25] = target: Gal4S(b1-4)GlcNAc
# Procedure, shortened: as §1
# [26] = target: Gal4S6S(b1-4)GlcNAc
# Procedure, shortened: as §1
# [27] = target: Gal6P(b1-4)GlcNAc
# Procedure, shortened: as §1
# [28] = target: Gal6S(b1-3)GlcNAc
# Procedure, shortened: as §1
# [29] = target: Gal6S(b1-3)GlcNAc6S
# Procedure, shortened: as §1
# [30] = target: Gal6S(b1-4)Glc
# Procedure, shortened: as §1
# [31] = target: Gal6S(b1-4)Glc6S
# Procedure, shortened: as §1
# [32] = target: Gal6S(b1-4)GlcNAc
# Procedure, shortened: as §1
# [33] = target: Gal6S(b1-4)GlcNAc6S
# Procedure, shortened: as §1
# [34] = target: GalNAc(a1-3)Gal
# Procedure, shortened: as §1
# [35] = target: GalNAc(a1-3)GalNAc
# Procedure, shortened: as §1
# [36] = target: GalNAc(a1-3)GalNAc(b1-3)Gal(a1-4)Gal(b1-4)Glc
# Procedure, shortened: as §1
# [37] = target: GalNAc(a1-3)GalNAc(b1-3)Gal(a1-4)Gal(b1-4)GlcNAc
# Procedure, shortened: as §1
binder,measurement,setting,value
PX9961KLbvu-535-38-535 (Bacteroides vulgatus) (protein) DKAYTDAESYTKGLHKIYSVWALSGQDGSSSSDISGLDAGNTALLRCWWTLQEQPTDEMKNAWNDAWCTEVNYMTWTTNKVEPIEGVYQRCMYIVALVNEFLKNIPNAPESIDKESYIAQARFNRAFAYYVLMDMFALPPFITEKNYSIEPAPLSREDLFNWIEAELNEIKPNLPSPRSEYGVADQAVASALLARMYLNAEIYTGKARYTECINACNEVIKAGYQLADNYADLFKADNGENPDTKKEIIYPIIFDGDKTQSWGMAAIIIGARGAEDKDVLLAHSGVDQGWAGFRATSNLVHLFDFQNDEEPKASEIQDKRGIFYDKGRSIDITSSVSGTFETEGWSVFKFSNLNSNGQPGKNTLWVDTDFPMFRLGDIYLMYAEAVARGGEGSKASAVEYINALRKRAYGDDKHNISENWLEENNFRNLLDERGRELYWEGIRRTDLVRFDLLTSGSYTWDFKGGINTGVGVNKRYNVYPIPVTDLTVNGNLQQNEGY,glycan array binding signal (z-score),[1],0.989
same,glycan array binding signal (z-score),[2],-0.344
same,glycan array binding signal (z-score),[3],-0.452
same,glycan array binding signal (z-score),[4],-0.046
same,glycan array binding signal (z-score),[5],0.06
same,glycan array binding signal (z-score),[6],-0.118
same,glycan array binding signal (z-score),[7],0.158
same,glycan array binding signal (z-score),[8],0.727
same,glycan array binding signal (z-score),[9],-0.057
same,glycan array binding signal (z-score),[10],-0.201
same,glycan array binding signal (z-score),[11],0.047
same,glycan array binding signal (z-score),[12],0.07
same,glycan array binding signal (z-score),[13],-0.326
same,glycan array binding signal (z-score),[14],0.042
same,glycan array binding signal (z-score),[15],-0.281
same,glycan array binding signal (z-score),[16],1.38
same,glycan array binding signal (z-score),[17],0.089
same,glycan array binding signal (z-score),[18],0.432
same,glycan array binding signal (z-score),[19],0.751
same,glycan array binding signal (z-score),[20],0.208
same,glycan array binding signal (z-score),[21],0.131
same,glycan array binding signal (z-score),[22],0.85
same,glycan array binding signal (z-score),[23],-0.174
same,glycan array binding signal (z-score),[24],0.582
same,glycan array binding signal (z-score),[25],0.495
same,glycan array binding signal (z-score),[26],0.671
same,glycan array binding signal (z-score),[27],-0.224
same,glycan array binding signal (z-score),[28],0.63
same,glycan array binding signal (z-score),[29],1.44
same,glycan array binding signal (z-score),[30],-0.189
same,glycan array binding signal (z-score),[31],0.389
same,glycan array binding signal (z-score),[32],-0.682
same,glycan array binding signal (z-score),[33],0.259
same,glycan array binding signal (z-score),[34],0.625
same,glycan array binding signal (z-score),[35],-0.967
same,glycan array binding signal (z-score),[36],-0.45
same,glycan array binding signal (z-score),[37],0.547

# Reformatted with bars between the fields: part of the list above
binder | measurement | setting | value
PX9961KLbvu-535-38-535 (Bacteroides vulgatus) (protein) DKAYTDAESYTKGLHKIYSVWALSGQDGSSSSDISGLDAGNTALLRCWWTLQEQPTDEMKNAWNDAWCTEVNYMTWTTNKVEPIEGVYQRCMYIVALVNEFLKNIPNAPESIDKESYIAQARFNRAFAYYVLMDMFALPPFITEKNYSIEPAPLSREDLFNWIEAELNEIKPNLPSPRSEYGVADQAVASALLARMYLNAEIYTGKARYTECINACNEVIKAGYQLADNYADLFKADNGENPDTKKEIIYPIIFDGDKTQSWGMAAIIIGARGAEDKDVLLAHSGVDQGWAGFRATSNLVHLFDFQNDEEPKASEIQDKRGIFYDKGRSIDITSSVSGTFETEGWSVFKFSNLNSNGQPGKNTLWVDTDFPMFRLGDIYLMYAEAVARGGEGSKASAVEYINALRKRAYGDDKHNISENWLEENNFRNLLDERGRELYWEGIRRTDLVRFDLLTSGSYTWDFKGGINTGVGVNKRYNVYPIPVTDLTVNGNLQQNEGY | glycan array binding signal (z-score) | [20] | 0.208
same | glycan array binding signal (z-score) | [21] | 0.131
same | glycan array binding signal (z-score) | [22] | 0.85
same | glycan array binding signal (z-score) | [23] | -0.174
same | glycan array binding signal (z-score) | [24] | 0.582
same | glycan array binding signal (z-score) | [25] | 0.495
same | glycan array binding signal (z-score) | [26] | 0.671
same | glycan array binding signal (z-score) | [27] | -0.224
